Assay results taken from doi:10.1101/2020.07.06.189761.
pKd: −log10 of the molar value. For at least one entry, the source does not settle the construct or the ends of the probe. For part of these data: At least one verdict was read from the data and is not stated in words by the source. For part of these data: Tags and fusion partners may be left off the protein sequences shown.

Assays:
[1] = biological target: T1, UM-Pif1 (unmodified Pif1) (Saccharomyces cerevisiae) (UniProt P07271); experiment: EMSA; conditions: 100 and 200 nM protein, 5 nM DNA, affinity differs from AC-Pif1, confirming BLI
T1 sequence (looked up, limits assumed): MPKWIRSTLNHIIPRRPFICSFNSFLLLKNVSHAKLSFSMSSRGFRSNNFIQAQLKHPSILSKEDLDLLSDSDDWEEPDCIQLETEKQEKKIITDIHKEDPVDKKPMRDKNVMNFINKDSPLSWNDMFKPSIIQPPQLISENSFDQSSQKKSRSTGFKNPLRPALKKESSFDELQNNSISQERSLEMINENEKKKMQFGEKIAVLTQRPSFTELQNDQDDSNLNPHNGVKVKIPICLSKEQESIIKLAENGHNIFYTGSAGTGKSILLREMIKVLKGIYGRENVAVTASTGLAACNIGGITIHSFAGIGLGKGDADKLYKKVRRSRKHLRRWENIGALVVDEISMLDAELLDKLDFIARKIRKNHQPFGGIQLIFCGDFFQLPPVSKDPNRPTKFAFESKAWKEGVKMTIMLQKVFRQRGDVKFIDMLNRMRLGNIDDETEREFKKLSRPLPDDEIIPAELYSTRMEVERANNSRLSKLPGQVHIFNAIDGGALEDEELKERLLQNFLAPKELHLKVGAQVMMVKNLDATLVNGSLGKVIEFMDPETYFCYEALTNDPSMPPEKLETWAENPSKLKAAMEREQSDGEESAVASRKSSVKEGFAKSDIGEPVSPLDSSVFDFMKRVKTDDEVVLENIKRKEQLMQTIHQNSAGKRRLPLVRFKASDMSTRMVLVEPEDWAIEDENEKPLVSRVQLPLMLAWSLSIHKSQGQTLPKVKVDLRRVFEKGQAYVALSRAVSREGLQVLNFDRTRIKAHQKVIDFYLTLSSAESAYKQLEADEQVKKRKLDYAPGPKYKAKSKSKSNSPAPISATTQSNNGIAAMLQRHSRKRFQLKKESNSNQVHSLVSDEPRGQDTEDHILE

[2] = biological target: AC-Pif1 (acetylated Pif1) (Saccharomyces cerevisiae) (UniProt P07271); experiment: BLI; conditions: acetylated by Piccolo NuA4
[3] = biological target: AC-Pif1ΔN (acetylated) del1-233 (Saccharomyces cerevisiae) (UniProt P07271); experiment: BLI; conditions: acetylated by Piccolo NuA4; residues 234-859

Sequence | binding result [1] | pKd [2] | pKd [3]
TTTTTTTTTTTTTTTTTTTTTTTTTGTGTCACTCACATAGCGTTC / GAACGCTATGTGAGTGACACTTTTTTTTTTTTTTTTTTTTTTTTT [DNA fork (T1/D1)] | binds |  | 
TTTTTTTTTTTTTTTTTTTTTTTTTGTGTCACTCACATAGCGTTC [T1 45-nt ssDNA] |  | 8.14 | 7.82
